Test results as given in paper PMC2572843.
Results are given in words; binding and its absence hold for the method and conditions named.

Protein sequences, listed by entry. Tags and fused reporters are not part of them. Lines headed by an entry give the natural chain unless they say otherwise; changes in a name come on top. Chains listed by the source or under a name are the forms on record and can include a tag or linker. Residues count along the entry.
UniProt P02769, residues 25-607: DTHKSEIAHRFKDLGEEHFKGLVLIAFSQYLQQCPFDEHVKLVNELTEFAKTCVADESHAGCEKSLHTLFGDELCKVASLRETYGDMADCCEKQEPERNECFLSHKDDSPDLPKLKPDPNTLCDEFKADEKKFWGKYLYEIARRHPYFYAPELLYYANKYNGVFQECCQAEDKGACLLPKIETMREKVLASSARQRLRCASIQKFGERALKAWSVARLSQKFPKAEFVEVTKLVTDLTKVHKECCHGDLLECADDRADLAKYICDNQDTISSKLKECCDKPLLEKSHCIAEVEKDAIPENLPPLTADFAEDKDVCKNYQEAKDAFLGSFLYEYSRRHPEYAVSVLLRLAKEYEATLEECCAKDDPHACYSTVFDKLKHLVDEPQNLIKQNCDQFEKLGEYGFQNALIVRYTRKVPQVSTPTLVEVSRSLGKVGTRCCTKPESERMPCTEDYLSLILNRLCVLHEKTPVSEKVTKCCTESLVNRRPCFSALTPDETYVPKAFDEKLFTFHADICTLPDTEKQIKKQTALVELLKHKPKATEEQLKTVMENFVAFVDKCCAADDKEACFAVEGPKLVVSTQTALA
UniProt Q03048: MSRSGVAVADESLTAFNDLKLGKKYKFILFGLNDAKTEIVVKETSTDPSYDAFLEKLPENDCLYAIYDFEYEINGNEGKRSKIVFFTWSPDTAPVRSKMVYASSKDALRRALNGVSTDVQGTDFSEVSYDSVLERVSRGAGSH
yeast cofilin mutant Cof1-22 (Q03048, form named): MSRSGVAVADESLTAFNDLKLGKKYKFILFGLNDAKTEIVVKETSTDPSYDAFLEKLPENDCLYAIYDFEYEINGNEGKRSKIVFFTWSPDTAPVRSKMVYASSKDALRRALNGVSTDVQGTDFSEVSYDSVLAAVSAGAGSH

Key:
[1] = biological target: yeast tropomyosin Tpm1 (recombinant) (S. cerevisiae) (UniProt P17536); test: pull-down; beads coated with Tpm1 or BSA incubated with 50 nM Cof1, Cof1-5 or Cof1-22; bound cofilin shown by immunoblot with yeast cofilin antibody; both purified
[2] = biological target: bovine serum albumin (bovine) (UniProt P02769); test: as above

| Substance | binding [1] | binding [2] |
| --- | --- | --- |
| yeast cofilin mutant Cof1-22 (from UniProt Q03048 1-143) | no binding (tested: 50 nM) |  |
| yeast cofilin Cof1 (recombinant, wild type) (from UniProt Q03048 1-143) |  | no binding (tested: 50 nM) |
